Laboratory results reported in PMC3794005.
Results are given in words; binding and its absence hold for the method and conditions named. Binding seen in cells or lysates may run through a third protein. Some results given as binding are weak or reduced against the parent protein; the word gives no strength.

Chains of the proteins cited; added tags and fusions are not shown.
UniProt Q9UDY8: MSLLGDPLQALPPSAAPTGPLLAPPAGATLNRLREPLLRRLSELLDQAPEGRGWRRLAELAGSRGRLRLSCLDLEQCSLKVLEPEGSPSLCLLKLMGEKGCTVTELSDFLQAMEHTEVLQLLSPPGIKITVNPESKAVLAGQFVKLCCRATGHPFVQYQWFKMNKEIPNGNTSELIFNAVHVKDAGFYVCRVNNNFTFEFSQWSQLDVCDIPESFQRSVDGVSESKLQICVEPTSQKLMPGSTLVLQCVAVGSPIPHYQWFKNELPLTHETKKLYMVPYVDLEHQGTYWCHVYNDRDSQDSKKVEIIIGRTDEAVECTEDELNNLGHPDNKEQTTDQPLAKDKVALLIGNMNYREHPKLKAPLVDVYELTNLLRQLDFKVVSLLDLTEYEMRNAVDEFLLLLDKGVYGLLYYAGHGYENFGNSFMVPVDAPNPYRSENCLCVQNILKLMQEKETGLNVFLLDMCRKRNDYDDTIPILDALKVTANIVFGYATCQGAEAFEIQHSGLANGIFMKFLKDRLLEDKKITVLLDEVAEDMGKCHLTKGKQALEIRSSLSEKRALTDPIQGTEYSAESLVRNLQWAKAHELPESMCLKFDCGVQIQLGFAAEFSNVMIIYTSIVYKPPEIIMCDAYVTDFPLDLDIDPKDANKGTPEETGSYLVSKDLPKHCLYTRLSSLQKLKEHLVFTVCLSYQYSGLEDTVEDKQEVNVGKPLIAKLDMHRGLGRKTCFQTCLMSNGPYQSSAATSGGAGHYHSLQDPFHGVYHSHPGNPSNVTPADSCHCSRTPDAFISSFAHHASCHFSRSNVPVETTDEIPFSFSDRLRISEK

T1: Bcl10 (human (endogenous in NCM460)) (UniProt O95999)
T1 sequence: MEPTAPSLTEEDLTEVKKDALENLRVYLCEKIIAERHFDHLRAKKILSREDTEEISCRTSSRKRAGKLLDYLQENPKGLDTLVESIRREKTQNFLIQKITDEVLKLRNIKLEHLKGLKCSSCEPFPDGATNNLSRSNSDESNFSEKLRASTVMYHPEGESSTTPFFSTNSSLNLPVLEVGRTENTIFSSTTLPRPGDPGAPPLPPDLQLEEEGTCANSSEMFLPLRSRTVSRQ

T2: CARMA3 (human (endogenous in NCM460)) (UniProt Q9BWT7)
T2 sequence: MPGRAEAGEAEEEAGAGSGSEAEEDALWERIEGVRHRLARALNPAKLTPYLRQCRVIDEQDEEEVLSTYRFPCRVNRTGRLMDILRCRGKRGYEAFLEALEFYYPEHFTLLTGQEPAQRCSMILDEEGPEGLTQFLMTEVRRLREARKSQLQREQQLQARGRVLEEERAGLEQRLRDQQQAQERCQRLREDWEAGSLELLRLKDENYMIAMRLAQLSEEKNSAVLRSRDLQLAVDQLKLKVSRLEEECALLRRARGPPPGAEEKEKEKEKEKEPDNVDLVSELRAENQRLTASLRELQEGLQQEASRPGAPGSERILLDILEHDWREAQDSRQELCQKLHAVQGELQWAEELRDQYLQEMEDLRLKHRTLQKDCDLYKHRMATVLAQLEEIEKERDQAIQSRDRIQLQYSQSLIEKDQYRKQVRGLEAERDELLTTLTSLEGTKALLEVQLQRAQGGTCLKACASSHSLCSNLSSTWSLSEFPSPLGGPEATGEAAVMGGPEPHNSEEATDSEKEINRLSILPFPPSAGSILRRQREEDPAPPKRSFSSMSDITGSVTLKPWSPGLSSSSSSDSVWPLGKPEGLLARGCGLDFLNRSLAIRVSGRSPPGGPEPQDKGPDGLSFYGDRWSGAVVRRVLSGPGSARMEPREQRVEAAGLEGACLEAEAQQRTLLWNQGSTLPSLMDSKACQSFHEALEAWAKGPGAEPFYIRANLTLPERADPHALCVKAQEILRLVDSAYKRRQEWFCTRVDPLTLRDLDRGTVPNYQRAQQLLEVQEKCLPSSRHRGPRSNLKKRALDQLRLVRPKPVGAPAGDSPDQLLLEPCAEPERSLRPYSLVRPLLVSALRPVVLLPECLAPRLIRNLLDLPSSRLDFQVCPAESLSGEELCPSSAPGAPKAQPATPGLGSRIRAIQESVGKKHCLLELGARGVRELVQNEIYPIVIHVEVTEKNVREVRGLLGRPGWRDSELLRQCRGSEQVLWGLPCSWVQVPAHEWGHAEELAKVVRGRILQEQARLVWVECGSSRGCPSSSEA

B1: Bcl10 (protein, UniProt O95999 1-233)
chain: T1 sequence

Legend:
[1] = target: T1, Bcl10 (human (endogenous in NCM460)); test: co-IP; endogenous proteins in lysates of NCM460 cells (control, PAF, LA-CS, PAF + LA-CS); IP with anti-Bcl10 antibody, blot with anti-MALT1; lysis buffer 20 mM Tris pH 7.5, 150 mM NaCl, 1% Triton X-100, 1 mM EDTA; 4°C, 16 h
[2] = target: T2, CARMA3 (human (endogenous in NCM460)); test: co-IP; data not shown; endogenous proteins in lysates of NCM460 cells (PAF with or without LA-CS); IP with anti-CARMA3 antibody, blot with anti-Bcl10 (methods); lysis buffer 20 mM Tris pH 7.5, 150 mM NaCl, 1% Triton X-100, 1 mM EDTA; 4°C, 16 h

| Molecule | binding [1] | binding [2] |
| --- | --- | --- |
| MALT1 (from UniProt Q9UDY8 1-824) | binds | – |
| B1 | – | binds |
